These are yes or no findings as the source states them, for the method shown. In cells and extracts the contact can be indirect. These calls come from enrichment with a bait or labelling near it, and not all partners need be listed.

By UniProt entry, the sequences of proteins in these tests, tags left out.
UniProt O00571: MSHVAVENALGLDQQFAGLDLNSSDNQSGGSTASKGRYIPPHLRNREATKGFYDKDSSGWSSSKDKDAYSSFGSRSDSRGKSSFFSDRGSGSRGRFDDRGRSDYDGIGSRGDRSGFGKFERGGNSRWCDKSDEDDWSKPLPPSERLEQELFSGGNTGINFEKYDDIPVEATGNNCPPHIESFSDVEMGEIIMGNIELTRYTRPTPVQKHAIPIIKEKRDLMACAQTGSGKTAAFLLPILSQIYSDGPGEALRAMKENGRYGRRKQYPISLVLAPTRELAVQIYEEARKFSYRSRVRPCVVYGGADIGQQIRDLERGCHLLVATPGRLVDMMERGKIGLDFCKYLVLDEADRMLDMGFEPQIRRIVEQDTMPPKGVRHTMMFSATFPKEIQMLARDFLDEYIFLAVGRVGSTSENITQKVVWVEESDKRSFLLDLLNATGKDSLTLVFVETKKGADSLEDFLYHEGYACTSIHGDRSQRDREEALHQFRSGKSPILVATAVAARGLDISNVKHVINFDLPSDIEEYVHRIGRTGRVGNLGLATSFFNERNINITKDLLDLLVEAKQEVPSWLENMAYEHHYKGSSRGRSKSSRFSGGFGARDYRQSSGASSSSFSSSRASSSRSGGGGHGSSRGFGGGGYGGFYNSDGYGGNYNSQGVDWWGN
UniProt Q9UBQ5: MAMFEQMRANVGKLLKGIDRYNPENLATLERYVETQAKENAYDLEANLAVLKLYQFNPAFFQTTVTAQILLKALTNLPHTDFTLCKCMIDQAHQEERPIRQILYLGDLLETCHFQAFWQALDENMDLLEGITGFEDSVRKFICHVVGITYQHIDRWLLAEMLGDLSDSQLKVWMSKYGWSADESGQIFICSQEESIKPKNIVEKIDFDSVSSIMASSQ
UniProt P55010: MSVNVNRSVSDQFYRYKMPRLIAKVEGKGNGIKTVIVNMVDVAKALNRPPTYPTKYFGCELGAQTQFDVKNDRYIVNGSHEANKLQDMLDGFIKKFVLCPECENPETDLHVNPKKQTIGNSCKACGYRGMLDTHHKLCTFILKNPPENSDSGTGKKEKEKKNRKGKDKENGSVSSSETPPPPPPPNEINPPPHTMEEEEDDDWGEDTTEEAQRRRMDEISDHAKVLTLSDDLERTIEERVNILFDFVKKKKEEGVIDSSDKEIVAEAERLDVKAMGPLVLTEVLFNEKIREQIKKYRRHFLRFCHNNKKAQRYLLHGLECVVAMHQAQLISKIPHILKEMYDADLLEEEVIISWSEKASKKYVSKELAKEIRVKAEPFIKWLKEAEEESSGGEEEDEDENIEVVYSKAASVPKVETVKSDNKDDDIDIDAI
UniProt Q9Y6M1: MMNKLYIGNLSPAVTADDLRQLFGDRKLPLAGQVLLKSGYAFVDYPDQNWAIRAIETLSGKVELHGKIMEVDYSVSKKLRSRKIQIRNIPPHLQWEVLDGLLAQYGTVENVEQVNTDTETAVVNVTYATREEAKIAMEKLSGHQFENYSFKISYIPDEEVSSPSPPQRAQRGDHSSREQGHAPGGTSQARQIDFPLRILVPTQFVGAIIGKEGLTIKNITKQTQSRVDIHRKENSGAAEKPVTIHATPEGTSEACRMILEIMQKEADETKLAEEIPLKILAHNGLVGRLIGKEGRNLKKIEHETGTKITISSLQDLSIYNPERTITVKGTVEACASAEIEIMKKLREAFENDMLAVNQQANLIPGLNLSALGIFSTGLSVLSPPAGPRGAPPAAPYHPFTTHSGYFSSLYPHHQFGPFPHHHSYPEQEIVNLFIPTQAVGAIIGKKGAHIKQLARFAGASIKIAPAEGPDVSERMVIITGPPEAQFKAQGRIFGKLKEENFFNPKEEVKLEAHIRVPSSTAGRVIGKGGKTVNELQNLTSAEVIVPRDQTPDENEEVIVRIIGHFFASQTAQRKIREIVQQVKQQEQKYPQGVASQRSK
UniProt Q15365: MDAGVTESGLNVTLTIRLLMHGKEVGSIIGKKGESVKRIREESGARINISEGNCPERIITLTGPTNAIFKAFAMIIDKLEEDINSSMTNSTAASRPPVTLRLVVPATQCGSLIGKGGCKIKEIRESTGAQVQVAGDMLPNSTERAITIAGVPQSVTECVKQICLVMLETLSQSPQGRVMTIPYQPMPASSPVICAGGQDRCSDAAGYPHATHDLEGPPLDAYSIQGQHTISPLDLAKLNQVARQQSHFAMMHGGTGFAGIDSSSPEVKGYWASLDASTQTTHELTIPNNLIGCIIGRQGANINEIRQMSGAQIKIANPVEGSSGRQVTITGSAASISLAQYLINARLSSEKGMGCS
UniProt P07737: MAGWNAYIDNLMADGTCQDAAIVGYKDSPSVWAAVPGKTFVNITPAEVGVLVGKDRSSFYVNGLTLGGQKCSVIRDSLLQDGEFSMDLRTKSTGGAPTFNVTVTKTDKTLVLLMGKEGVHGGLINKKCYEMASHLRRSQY
UniProt Q14157: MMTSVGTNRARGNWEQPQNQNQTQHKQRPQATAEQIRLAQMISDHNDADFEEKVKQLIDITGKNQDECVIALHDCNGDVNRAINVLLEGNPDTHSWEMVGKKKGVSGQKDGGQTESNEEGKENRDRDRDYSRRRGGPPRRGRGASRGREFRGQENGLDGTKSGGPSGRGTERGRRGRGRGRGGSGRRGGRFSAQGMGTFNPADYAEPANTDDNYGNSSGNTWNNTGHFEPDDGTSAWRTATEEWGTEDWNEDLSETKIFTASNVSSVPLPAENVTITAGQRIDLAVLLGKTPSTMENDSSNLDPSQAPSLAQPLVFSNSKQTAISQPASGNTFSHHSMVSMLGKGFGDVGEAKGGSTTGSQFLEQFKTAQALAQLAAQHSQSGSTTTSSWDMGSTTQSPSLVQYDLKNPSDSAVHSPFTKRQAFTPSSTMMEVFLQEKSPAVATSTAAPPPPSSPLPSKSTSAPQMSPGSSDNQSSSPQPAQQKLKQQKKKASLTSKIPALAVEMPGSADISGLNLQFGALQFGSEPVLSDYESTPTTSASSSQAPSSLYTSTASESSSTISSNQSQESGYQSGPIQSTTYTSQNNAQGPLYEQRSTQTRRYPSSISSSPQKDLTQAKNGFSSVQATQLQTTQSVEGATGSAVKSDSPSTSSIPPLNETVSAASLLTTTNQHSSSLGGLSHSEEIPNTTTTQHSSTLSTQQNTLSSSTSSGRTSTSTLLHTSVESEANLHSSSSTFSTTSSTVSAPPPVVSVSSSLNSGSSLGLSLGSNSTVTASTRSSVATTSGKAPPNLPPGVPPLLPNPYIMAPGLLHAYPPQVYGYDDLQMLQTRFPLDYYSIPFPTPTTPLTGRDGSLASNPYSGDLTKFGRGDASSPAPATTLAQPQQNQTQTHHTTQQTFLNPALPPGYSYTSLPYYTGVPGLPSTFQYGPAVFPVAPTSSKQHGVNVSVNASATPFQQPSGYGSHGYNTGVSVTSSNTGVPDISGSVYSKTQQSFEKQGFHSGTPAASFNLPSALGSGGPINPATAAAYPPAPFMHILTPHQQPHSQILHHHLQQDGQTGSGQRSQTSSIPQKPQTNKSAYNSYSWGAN
UniProt Q7Z739: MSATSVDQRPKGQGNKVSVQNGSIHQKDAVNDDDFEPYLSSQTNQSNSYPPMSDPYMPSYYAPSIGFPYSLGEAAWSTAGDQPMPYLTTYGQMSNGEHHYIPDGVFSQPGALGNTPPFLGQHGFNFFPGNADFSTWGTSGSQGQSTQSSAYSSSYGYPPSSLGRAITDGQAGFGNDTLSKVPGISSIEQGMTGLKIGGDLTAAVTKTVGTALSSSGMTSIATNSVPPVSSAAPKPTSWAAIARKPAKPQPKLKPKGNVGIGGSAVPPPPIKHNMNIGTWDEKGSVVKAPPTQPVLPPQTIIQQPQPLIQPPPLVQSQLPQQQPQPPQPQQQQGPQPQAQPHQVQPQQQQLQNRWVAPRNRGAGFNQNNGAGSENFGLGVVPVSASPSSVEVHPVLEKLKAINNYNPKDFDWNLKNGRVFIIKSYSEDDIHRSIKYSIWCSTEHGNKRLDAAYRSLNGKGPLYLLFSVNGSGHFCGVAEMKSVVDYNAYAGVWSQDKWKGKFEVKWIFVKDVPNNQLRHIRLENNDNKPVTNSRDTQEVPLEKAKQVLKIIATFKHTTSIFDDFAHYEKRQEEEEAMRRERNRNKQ
UniProt Q04637: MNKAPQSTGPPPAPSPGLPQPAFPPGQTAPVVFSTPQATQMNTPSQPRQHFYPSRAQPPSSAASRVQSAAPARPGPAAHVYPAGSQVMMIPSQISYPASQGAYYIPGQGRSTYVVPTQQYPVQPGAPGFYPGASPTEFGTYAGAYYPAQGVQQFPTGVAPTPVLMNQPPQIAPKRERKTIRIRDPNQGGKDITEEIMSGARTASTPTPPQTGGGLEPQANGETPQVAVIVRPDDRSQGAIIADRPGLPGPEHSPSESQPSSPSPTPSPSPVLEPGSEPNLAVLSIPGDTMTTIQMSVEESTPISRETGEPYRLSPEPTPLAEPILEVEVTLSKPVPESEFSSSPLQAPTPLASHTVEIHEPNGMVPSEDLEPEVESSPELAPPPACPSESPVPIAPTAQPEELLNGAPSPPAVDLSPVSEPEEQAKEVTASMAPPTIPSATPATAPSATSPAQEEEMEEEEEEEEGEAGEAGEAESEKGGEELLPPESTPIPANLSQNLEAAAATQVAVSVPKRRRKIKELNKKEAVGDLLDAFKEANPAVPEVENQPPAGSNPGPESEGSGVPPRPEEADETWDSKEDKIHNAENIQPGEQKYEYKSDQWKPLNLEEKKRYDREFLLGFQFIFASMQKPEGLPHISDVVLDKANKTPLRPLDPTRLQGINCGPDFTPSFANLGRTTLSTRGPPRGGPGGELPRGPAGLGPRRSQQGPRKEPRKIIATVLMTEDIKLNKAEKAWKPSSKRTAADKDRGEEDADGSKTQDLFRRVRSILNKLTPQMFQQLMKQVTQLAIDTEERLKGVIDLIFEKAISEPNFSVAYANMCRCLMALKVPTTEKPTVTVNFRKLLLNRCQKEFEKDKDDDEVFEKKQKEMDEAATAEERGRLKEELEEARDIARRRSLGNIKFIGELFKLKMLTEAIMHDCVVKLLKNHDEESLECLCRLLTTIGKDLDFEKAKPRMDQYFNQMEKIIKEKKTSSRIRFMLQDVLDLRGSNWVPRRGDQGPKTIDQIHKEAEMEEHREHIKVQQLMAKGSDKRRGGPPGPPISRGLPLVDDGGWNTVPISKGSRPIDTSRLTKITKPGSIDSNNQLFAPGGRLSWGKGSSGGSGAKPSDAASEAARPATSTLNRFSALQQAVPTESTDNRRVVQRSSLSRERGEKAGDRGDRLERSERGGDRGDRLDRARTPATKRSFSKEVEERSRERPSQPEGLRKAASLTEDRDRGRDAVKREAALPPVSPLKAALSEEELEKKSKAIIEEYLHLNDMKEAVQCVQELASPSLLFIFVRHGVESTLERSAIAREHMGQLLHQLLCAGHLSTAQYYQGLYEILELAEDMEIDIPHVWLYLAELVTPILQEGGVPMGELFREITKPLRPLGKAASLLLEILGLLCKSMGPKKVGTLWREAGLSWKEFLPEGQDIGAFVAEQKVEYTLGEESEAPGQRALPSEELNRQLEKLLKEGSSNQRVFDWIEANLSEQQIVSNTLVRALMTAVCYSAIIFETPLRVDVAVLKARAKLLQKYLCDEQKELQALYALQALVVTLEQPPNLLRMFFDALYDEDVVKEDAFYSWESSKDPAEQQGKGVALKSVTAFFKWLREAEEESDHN
UniProt P11940: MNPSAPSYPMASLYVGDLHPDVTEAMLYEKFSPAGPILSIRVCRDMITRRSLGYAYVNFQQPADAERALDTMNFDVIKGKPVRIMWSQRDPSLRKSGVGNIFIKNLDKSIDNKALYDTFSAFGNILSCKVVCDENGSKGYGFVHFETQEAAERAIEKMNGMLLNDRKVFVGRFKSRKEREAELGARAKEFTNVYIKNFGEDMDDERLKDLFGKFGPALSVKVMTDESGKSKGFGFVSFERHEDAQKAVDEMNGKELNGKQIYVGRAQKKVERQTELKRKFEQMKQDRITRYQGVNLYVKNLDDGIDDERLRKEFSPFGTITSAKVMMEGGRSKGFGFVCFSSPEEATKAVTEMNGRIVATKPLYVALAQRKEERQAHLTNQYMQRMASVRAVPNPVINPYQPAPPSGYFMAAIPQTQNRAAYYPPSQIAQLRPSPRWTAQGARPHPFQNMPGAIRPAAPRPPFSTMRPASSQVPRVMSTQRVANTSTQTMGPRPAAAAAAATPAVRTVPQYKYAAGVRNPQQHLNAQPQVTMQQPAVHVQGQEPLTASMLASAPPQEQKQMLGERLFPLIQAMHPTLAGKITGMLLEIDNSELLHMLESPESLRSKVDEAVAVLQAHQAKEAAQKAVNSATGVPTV

One assay deals with G3BP1-APEX fusion protein (UniProt Q13283). Put plainly: proximity labelling; G3BP1-APEX (heavy SILAC) against CTRL-APEX (light SILAC) in PC-3 cells, vehicle or arsenite (200 uM, 2 h); biotin tagging, streptavidin pulldown, LC-MS/MS (Orbitrap); triplicates.
With CNOT1 (from UniProt A5YKK6 1-2376), the binding entry is “binds”.

Turning to DDX3X (from UniProt O00571 1-662), the binding entry is reported as “binds”.

As for DDX5 (from UniProt P17844 1-614), the binding result is “binds”.

In the case of EIF3G (from UniProt O75821 1-320), the binding entry is “binds”.

On to EIF3K (from UniProt Q9UBQ5 1-218), for which the binding result was “binds”.

EIF4H (from UniProt Q15056 1-248): the binding entry is recorded as “binds”.

As for EIF5 (from UniProt P55010 1-431), the binding result is given as “binds”.

Consider GNB2 (from UniProt P62879 1-340), for which the binding entry is recorded as “binds”.

For the substance HNRNPK (from UniProt P61978 1-463), the binding result is listed as “binds”.

Consider IGF2BP2 (from UniProt Q9Y6M1 1-599), for which the binding result is “binds”.

For the substance PCBP1 (from UniProt Q15365 1-356), the binding entry is “binds”.

As to PFN1 (from UniProt P07737 1-140), the binding entry is reported as “binds”.

On to SND1 (from UniProt Q7KZF4 1-910), for which the binding result is given as “binds”.

For the substance SRSF1 (from UniProt Q07955 1-248), the binding result is “binds”.

As for UBAP2L (from UniProt Q14157 1-1087), the binding entry was “binds”.

On to VCP (from UniProt P55072 1-806), for which the binding entry is on record as “binds”.

Take YTHDF3 (from UniProt Q7Z739 1-585): the binding result is reported as “binds”.

As for eIF4G1 (from UniProt Q04637 1-1599), the binding result is “binds”.

For the next assay the target is unchanged. Nature of the assay: proximity labelling; G3BP1-APEX transiently expressed in PC-3 cells, vehicle or arsenite (200 uM, 2 h); biotin-tyramide 500 uM 30 min and H2O2 1 mM 1 min; biotinylated proteins pulled down with Dynabeads M-280 Streptavidin; Western blot. On the technique in general: Immunoblotting shows a protein as a band on a membrane.
As for PABC1 (from UniProt P11940 1-636), the binding entry was “binds”.

In the case of eIF4G1 (from UniProt Q04637 1-1599), the binding entry is “binds”.

The values are drawn from article PMC7337521.
